Experimental data as given in the supplement of paper PMC10849652.
The other results are listed elsewhere or left out.

Amino acid sequences for entries named in this document (tags omitted). A change or cut given only in a name is not applied to a line headed by its entry.
UniProt Q66K74: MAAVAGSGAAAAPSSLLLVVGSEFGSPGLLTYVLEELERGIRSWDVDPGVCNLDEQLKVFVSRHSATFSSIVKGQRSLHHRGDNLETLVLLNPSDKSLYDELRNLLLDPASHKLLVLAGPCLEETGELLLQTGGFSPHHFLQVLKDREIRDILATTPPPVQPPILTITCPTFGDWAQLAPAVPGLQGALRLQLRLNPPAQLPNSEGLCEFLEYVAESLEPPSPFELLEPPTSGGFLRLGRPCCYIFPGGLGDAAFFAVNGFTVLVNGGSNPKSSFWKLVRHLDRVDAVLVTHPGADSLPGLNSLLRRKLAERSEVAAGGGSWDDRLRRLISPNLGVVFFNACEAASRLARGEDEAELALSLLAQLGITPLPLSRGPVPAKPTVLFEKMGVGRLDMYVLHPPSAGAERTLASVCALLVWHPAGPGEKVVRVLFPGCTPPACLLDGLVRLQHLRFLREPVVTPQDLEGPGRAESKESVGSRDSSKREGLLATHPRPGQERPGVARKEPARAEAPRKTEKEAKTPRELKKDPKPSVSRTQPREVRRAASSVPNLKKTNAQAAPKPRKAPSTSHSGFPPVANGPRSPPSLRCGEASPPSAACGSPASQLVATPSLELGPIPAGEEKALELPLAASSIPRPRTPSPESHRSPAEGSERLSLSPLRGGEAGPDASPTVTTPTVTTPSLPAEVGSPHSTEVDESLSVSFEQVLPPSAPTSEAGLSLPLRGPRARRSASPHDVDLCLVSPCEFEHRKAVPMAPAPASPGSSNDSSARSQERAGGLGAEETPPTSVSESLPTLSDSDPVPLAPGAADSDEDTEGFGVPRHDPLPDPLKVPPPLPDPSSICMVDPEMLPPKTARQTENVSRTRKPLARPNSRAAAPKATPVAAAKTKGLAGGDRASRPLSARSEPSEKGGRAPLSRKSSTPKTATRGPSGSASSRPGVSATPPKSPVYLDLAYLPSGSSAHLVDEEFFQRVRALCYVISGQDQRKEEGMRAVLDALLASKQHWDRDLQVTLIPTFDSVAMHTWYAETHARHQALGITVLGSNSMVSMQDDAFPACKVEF
UniProt Q9BQ69: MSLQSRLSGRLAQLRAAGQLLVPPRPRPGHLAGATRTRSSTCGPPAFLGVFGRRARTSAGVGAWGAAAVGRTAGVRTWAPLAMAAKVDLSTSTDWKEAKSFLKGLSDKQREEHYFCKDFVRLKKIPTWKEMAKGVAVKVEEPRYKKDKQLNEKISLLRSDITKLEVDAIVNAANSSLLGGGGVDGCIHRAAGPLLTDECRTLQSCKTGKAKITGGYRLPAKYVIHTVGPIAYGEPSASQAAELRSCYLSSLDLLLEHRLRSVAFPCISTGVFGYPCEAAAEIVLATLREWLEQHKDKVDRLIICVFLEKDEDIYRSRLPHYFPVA
UniProt Q16539, whole entry, looked up: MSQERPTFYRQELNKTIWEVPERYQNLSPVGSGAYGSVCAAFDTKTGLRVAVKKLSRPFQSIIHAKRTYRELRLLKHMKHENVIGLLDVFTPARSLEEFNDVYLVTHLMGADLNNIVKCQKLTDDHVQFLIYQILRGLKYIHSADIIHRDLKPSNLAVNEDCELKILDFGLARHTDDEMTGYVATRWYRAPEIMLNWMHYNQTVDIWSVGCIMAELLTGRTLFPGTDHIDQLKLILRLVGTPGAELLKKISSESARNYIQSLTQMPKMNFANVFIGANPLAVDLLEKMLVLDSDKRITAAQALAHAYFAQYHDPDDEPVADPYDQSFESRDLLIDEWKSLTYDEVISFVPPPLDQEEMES
UniProt Q96S90: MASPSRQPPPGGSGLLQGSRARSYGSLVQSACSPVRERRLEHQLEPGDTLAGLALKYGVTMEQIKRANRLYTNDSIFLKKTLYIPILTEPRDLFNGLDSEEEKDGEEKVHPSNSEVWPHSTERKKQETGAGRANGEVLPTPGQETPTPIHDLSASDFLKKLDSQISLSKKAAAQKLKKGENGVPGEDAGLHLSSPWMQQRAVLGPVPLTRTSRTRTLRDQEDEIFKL
UniProt O43318: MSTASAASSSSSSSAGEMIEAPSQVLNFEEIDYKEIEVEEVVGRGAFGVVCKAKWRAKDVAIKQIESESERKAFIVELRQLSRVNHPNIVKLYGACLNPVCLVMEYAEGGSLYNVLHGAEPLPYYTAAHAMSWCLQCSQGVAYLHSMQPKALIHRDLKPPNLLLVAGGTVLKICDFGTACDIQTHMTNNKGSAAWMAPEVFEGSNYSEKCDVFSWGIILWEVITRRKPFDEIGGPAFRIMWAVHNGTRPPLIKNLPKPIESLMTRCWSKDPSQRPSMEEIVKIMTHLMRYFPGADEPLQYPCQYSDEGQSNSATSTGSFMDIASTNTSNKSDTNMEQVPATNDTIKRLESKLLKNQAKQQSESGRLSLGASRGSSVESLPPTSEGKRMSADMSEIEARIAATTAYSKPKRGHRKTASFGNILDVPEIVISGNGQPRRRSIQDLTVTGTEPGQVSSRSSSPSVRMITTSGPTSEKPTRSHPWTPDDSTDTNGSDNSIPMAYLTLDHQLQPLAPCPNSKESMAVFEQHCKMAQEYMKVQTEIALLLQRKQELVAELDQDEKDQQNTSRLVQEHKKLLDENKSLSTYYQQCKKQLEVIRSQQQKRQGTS
UniProt P07948: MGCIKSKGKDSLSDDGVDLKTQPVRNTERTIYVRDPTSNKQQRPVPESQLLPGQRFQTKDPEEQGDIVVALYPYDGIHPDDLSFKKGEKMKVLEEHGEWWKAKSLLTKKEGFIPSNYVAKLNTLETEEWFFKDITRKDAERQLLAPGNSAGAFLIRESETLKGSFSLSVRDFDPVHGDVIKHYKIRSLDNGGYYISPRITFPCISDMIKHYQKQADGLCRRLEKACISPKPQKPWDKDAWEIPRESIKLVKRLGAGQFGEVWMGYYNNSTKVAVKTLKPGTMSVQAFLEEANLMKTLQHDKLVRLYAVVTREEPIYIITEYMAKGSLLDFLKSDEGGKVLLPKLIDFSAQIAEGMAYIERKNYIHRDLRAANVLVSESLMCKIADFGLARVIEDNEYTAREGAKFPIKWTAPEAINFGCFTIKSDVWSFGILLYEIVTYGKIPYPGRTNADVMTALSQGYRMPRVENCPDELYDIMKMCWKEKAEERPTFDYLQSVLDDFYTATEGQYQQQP
UniProt Q8WVR3: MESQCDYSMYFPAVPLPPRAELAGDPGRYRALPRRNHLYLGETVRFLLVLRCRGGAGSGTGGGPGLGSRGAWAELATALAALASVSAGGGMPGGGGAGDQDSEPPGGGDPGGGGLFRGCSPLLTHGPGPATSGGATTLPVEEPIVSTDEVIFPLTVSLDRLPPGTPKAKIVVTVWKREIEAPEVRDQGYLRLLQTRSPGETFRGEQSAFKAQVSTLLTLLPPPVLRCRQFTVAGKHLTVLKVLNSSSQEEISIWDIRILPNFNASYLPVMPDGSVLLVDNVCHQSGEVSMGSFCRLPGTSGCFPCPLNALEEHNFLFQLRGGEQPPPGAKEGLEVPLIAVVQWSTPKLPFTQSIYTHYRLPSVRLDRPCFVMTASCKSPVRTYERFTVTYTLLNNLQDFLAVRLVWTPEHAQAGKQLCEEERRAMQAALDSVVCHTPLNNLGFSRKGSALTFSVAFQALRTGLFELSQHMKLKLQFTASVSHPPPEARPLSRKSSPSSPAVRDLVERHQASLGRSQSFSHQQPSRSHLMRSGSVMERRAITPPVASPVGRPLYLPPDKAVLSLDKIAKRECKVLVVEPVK
UniProt P45983: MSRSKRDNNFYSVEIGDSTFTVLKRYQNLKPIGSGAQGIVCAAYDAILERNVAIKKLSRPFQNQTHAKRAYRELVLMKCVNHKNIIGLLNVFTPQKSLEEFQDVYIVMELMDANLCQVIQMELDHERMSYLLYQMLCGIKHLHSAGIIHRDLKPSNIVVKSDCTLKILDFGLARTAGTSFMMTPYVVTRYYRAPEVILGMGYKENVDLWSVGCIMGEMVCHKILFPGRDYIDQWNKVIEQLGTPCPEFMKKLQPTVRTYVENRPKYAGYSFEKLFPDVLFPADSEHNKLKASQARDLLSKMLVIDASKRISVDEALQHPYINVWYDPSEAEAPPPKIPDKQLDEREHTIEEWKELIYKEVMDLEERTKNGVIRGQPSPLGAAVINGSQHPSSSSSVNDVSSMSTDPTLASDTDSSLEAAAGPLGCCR
UniProt P27816: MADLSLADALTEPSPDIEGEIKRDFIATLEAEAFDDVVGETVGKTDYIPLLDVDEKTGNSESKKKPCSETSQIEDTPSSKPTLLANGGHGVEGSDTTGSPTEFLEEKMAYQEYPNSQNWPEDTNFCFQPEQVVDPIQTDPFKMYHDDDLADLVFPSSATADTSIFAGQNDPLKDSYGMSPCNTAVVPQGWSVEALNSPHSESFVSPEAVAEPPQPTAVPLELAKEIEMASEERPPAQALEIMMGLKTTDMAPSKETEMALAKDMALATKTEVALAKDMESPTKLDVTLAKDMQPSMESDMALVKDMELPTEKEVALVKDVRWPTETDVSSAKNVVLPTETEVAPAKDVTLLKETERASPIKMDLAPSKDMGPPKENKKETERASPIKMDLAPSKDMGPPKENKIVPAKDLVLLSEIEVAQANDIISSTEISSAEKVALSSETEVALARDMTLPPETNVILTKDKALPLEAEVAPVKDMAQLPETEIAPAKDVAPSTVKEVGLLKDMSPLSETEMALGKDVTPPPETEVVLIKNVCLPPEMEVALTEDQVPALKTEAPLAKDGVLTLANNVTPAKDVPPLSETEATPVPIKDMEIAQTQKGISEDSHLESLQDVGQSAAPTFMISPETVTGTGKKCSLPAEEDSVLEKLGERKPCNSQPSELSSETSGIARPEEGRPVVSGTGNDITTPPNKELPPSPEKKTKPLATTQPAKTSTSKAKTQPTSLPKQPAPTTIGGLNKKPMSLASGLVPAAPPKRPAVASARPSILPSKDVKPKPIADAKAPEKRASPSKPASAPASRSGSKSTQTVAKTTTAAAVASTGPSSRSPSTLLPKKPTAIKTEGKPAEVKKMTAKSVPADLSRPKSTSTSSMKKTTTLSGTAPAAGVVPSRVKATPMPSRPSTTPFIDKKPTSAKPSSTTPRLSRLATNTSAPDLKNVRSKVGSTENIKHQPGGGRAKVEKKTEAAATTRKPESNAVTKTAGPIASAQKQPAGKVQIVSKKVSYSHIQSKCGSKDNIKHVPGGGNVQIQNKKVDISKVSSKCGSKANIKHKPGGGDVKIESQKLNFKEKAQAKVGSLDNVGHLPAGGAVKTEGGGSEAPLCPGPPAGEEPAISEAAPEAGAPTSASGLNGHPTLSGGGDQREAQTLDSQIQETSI
UniProt P29966: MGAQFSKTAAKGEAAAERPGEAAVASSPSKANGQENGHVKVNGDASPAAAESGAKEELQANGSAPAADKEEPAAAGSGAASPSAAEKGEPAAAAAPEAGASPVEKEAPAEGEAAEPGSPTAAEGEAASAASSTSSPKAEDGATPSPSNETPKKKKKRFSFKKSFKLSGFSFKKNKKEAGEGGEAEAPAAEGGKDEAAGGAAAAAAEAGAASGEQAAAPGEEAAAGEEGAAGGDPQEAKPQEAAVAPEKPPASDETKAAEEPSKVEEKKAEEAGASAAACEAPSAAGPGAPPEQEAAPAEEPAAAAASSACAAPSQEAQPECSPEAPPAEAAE
UniProt Q9H063: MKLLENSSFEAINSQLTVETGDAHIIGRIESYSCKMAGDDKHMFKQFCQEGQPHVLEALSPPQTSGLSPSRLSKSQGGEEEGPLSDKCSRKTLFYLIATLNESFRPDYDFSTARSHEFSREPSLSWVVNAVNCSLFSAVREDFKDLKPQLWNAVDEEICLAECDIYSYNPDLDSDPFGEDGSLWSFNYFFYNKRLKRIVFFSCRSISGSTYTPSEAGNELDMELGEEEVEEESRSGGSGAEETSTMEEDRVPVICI

compound: C/C(=N\NC(=O)C1=CC(=CC=C1)S(=O)(=O)N2CCOCC2)/C3=C(C=CC(=C3)Cl)O; experiment: log2 fold change, soluble protein after heating vs DMSO (PISA); higher = thermal stabilisation; K562 lysate, 10 uM; active = over 0.2 and 3.5 SD of the protein, either way, in both replicates (recomputed)
In short: (§1)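 Following dounce homogenisation of K562 pellets in PBS pH 7.4 with 1 mM MgCl2, crude extract at 1 mg/mL protein was incubated for 30 min with 10 μM compound. Aliquots were then heated for 3 min over 48°C-58°C and pooled, NP-40 was added to 0.5% at 4°C, and soluble protein was recovered as the supernatant at 21,000xg for 90 min. Channel-sum-equalised TMTpro 16plex LC-MS/MS quantified this protein. Each value, from duplicates, is a log-two fold change in thermal stability relative to solvent controls.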

Target	log2 fold change
MAP1S (UniProt Q66K74)	inactive: 0
MACROD1 (UniProt Q9BQ69)	inactive: 0.017
MAPK14 (UniProt Q16539)	inactive: 0.038
MAIP1 (UniProt Q8WWC4)	inactive: -0.025
MAP3K20 isoform 2 (UniProt Q9NYL2)	inactive: -0.187
LYAR (UniProt Q9NX58)	inactive: -0.004
MARS (UniProt P56192)	inactive: -0.021
MAP7D1 (UniProt Q3KQU3)	inactive: -0.003
MAP2K2 (UniProt P36507)	inactive: 0.005
LTN1 isoform 3 (UniProt O94822)	inactive: 0.021
MAT2A (UniProt P31153)	inactive: 0.024
LYSMD1 (UniProt Q96S90)	inactive: -0.033
MAPRE2 (UniProt Q15555)	inactive: 0.045
MAP3K7 (UniProt O43318)	inactive: -0.072
LYN (UniProt P07948)	inactive: -0.047
MAP11 (UniProt Q8WVR3)	inactive: -0.018

Target	log2 fold change
MAP2K4 isoform 2 (UniProt P45985)	inactive: -0.069
MAN2C1 isoform 4 (UniProt Q9NTJ4)	inactive: 0.113
MAN2A2 (UniProt P49641)	inactive: 0.567
LZTFL1 (UniProt Q9NQ48)	inactive: 0.045
MAPK8 isoform 3 (UniProt P45983)	inactive: -0.039
MACF1 isoform 3 (UniProt Q9UPN3)	inactive: 0.018
MAN2A1 (UniProt Q16706)	inactive: 0.02
MAN2B1 (UniProt O00754)	inactive: -0.018
MAP2K1 (UniProt Q02750)	inactive: 0.04
MAP4 isoform 5 (UniProt P27816)	inactive: 0.041
MAD2L2 (UniProt Q9UI95)	inactive: 0.004
MAP3K20 (UniProt Q9NYL2)	inactive: -0.018
MARCKS (UniProt P29966)	inactive: 0.096
MAP4 (UniProt E7EVA0)	inactive: 0.01
MAF1 (UniProt Q9H063)	inactive: 0.091
MAPK1 (UniProt P28482)	inactive: -0.017

compound: C1=CC(=CC=C1C2=NC3=C(N2)C=C(C=C3)C(=O)N)OC4=CC=C(C=C4)Cl; experiment: as above
In short: as §1

Target	log2 fold change
MAP1S (UniProt Q66K74)	inactive: -0.023
MACROD1 (UniProt Q9BQ69)	inactive: 0.009
MAPK14 (UniProt Q16539)	inactive: -0.1
MAIP1 (UniProt Q8WWC4)	inactive: -0.069
MAP3K20 isoform 2 (UniProt Q9NYL2)	inactive: -0.029
LYAR (UniProt Q9NX58)	inactive: 0
MARS (UniProt P56192)	inactive: 0.015
MAP7D1 (UniProt Q3KQU3)	inactive: -0.009
MAP2K2 (UniProt P36507)	inactive: 0.023
LTN1 isoform 3 (UniProt O94822)	inactive: -0.065
MAT2A (UniProt P31153)	inactive: 0.017
LYSMD1 (UniProt Q96S90)	inactive: 0.107
MAPRE2 (UniProt Q15555)	inactive: 0.013
MAP3K7 (UniProt O43318)	inactive: -0.015
LYN (UniProt P07948)	inactive: 0.026
MAP11 (UniProt Q8WVR3)	inactive: -0.009

Target	log2 fold change
MAP2K4 isoform 2 (UniProt P45985)	inactive: -0.035
MAN2C1 isoform 4 (UniProt Q9NTJ4)	inactive: 0.049
MAN2A2 (UniProt P49641)	inactive: -0.058
LZTFL1 (UniProt Q9NQ48)	inactive: -0.016
MAPK8 isoform 3 (UniProt P45983)	inactive: -0.091
MACF1 isoform 3 (UniProt Q9UPN3)	inactive: -0.011
MAN2A1 (UniProt Q16706)	inactive: -0.001
MAN2B1 (UniProt O00754)	inactive: -0.009
MAP2K1 (UniProt Q02750)	inactive: -0.026
MAP4 isoform 5 (UniProt P27816)	inactive: -0.251
MAD2L2 (UniProt Q9UI95)	inactive: 0.209
MAP3K20 (UniProt Q9NYL2)	inactive: 0.011
MARCKS (UniProt P29966)	inactive: -0.011
MAP4 (UniProt E7EVA0)	inactive: 0.113
MAF1 (UniProt Q9H063)	inactive: 0.051
MAPK1 (UniProt P28482)	inactive: 0.001

compound: C1=CC2=C(C=CC(=C2)/C=C\3/C(=O)NC(=NCC4=CC=CS4)S3)N=C1; experiment: as above
In short: as §1

Target	log2 fold change
MAP1S (UniProt Q66K74)	inactive: -0.016
MACROD1 (UniProt Q9BQ69)	inactive: 0.02
MAPK14 (UniProt Q16539)	inactive: -0.05
MAIP1 (UniProt Q8WWC4)	inactive: 0.04
MAP3K20 isoform 2 (UniProt Q9NYL2)	inactive: -0.062
LYAR (UniProt Q9NX58)	inactive: -0.007
MARS (UniProt P56192)	inactive: 0.029
MAP7D1 (UniProt Q3KQU3)	inactive: 0.001
MAP2K2 (UniProt P36507)	inactive: -0.023
LTN1 isoform 3 (UniProt O94822)	inactive: -0.005
MAT2A (UniProt P31153)	inactive: -0.003
LYSMD1 (UniProt Q96S90)	inactive: -0.018
MAPRE2 (UniProt Q15555)	inactive: 0.043
MAP3K7 (UniProt O43318)	inactive: 0.012
LYN (UniProt P07948)	inactive: -0.011
MAP11 (UniProt Q8WVR3)	inactive: 0.006

Target	log2 fold change
MAP2K4 isoform 2 (UniProt P45985)	inactive: -0.003
MAN2C1 isoform 4 (UniProt Q9NTJ4)	inactive: -0.055
MAN2A2 (UniProt P49641)	inactive: 0.016
LZTFL1 (UniProt Q9NQ48)	inactive: 0.016
MAPK8 isoform 3 (UniProt P45983)	inactive: -0.064
MACF1 isoform 3 (UniProt Q9UPN3)	inactive: 0.008
MAN2A1 (UniProt Q16706)	inactive: -0.066
MAN2B1 (UniProt O00754)	inactive: -0.004
MAP2K1 (UniProt Q02750)	inactive: -0.02
MAP4 isoform 5 (UniProt P27816)	active: -0.495
MAD2L2 (UniProt Q9UI95)	inactive: -0.035
MAP3K20 (UniProt Q9NYL2)	inactive: -0.099
MARCKS (UniProt P29966)	inactive: 0.196
MAP4 (UniProt E7EVA0)	inactive: 0.045
MAF1 (UniProt Q9H063)	inactive: -0.046
MAPK1 (UniProt P28482)	inactive: 0.001
